Variants at the floor of the assay are shown more often than the library holds them.
B1: tRNA (parent)
chain: GUUCCGUUGGCGUAAUGGUAACGCGUCUCCCUCCUAAGGAGAAGACUGCGGGUUCGAGUCCCGUACGGAACG

Variants of: B1
Assay: yeast fitness relative to wild type (ratio to wild type); higher = fitter; tRNA-Arg(CCU), competitive growth, 37 C, YPD
Procedure, shortened: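 A pool of Saccharomyces cerevisiae strains, each with a tRNA-Arg(CCU) gene variant at the native genomic locus, was competed in YPD at 37°C for 24 hours across six parallel replicates. The variants had been chemically synthesised at a 3% per-site mutation rate over 69 sites, and gene amplicons before and after competition were read by 100-nucleotide paired-end sequencing. Darwinian fitness relative to wild type rested on changes in genotype frequencies. Genotypes required ≥ 100 starting reads, and estimates < 0.5 were set to 0.5.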

Point of comparison: U2C A65G G68A A69C, yeast fitness 0.563. Against it:
- U3A C11G G12A C22U G39A A65G — lower, ≤ 0.5
- G25A U32A U54G G56A — lower, ≤ 0.5
- U2C C4U G10C U47A A57C A70C — lower, ≤ 0.5
- C11A G63A — higher, 0.681
- A14U C27U U54C C55G — lower, ≤ 0.5
- C4G A14C U26C — lower, ≤ 0.5
- C4G C29A — higher, 0.757
- U13A A15C A45G C55U — lower, ≤ 0.5
- U3A A20U G50A C60G — lower, ≤ 0.5
- C24A C27G G56A — lower, ≤ 0.5
- U19C U47A C49U A57C — lower, ≤ 0.5
- C11A G63A A65C — lower, ≤ 0.5
- A45U U54C A57U C62U — lower, ≤ 0.5
- U8C A14G A42C A43U U59A C62G A65U — lower, ≤ 0.5
- A15U G39A U47A G68C — lower, ≤ 0.5
- C34G G58A G63C — lower, ≤ 0.5
- A14U G38C C46A — lower, 0.551
- U3G C31A G41A — lower, ≤ 0.5
- A14G C55G A65G C66G — lower, ≤ 0.5
- C11G A14U A43U G48A — lower, ≤ 0.5
- U8A C30A A37G C66U A70C — lower, ≤ 0.5
- G38A C55G C61U — lower, ≤ 0.5
- U8G A21C U54A A57G — lower, ≤ 0.5
- C60U A70G — higher, 0.786
- C27G C31U C49G U59A — lower, ≤ 0.5
- G52A C62A — lower, ≤ 0.5
- G51A C60U C61U A65G A69C — higher, 0.594
- U3A C30G C33U G67U — lower, ≤ 0.5
- C4G U26A C49U — lower, ≤ 0.5
- C5G C30A C31A C49U C55G G67A — lower, ≤ 0.5
- U16A G67U — higher, 0.85
- A20G C22A C29G — lower, ≤ 0.5
- A14U C31A U35G — lower, ≤ 0.5
- C5A C22G C27G A36U A40C A65U — lower, ≤ 0.5
- C31A A36U A40C G52C A65C A70G — lower, ≤ 0.5
- U7C A20C A37C U53C G63C — lower, ≤ 0.5
- G10A C30A U32C G41C C60G A70U — lower, ≤ 0.5
- C30U U32A A36U A37U C61G C66U A69U — lower, ≤ 0.5
- U19C G25A G44C U47A — lower, ≤ 0.5
- C4A A20U U28A C31U A65U — lower, ≤ 0.5
- U19A G25A A37U C49A C66U — lower, ≤ 0.5
- G6C C31U C34G — lower, ≤ 0.5
- G9C C31U G39A A57C — lower, ≤ 0.5
- U13A G63C G67C A69U — lower, ≤ 0.5
- U3A C27G A43G — lower, ≤ 0.5
- G9C U28A A45C G48C A69U — lower, ≤ 0.5
- U2G C31G A36G U59A — lower, ≤ 0.5
- C33A G50U C61A — lower, ≤ 0.5
- U3C U7C A37U C60G — lower, ≤ 0.5
- C5A C46G — higher, 0.719
- A37U U47A G52U — lower, ≤ 0.5
- G10A C55G A65C — lower, ≤ 0.5
- U3C C4G G6A U8G A37U — lower, ≤ 0.5
- U7G C22U G39C — lower, ≤ 0.5
- C33G C62A G68C — lower, ≤ 0.5
- C4U C30G C31G C62A A65C — lower, ≤ 0.5
- U7A U19A U32C G68A A70G — lower, ≤ 0.5
- G12A A14C C31U — lower, ≤ 0.5
- U2C G9A C30G C55A — lower, ≤ 0.5
- U8A C22U G48C G68A — lower, ≤ 0.5
- A42C U53A G56C — lower, ≤ 0.5
- A15G U35G C66G A69U — lower, ≤ 0.5
- C24U C29U C55U — lower, ≤ 0.5
- A21G G23A C27G A37U G44A C49U A65U — lower, ≤ 0.5
- C22U A43U U59C — lower, ≤ 0.5
- A57C U64C — higher, 0.564
- C4G C22U C33U — lower, ≤ 0.5
- A21G C49G G56C — lower, ≤ 0.5
- C29G C33U U47A G51A C61U — lower, ≤ 0.5
- U19C A36C G41A G51C G68A — lower, ≤ 0.5
- A15C U26C A40G U53C — lower, ≤ 0.5
- A15U C30G A36C G48U C60A C61U — lower, ≤ 0.5
- C4U A20G A57U — lower, ≤ 0.5
- C33A C62A A69G — lower, ≤ 0.5
- C24U U35A A40G C49U — lower, ≤ 0.5
- U3A C5U C22G C34G A37G A65G — lower, ≤ 0.5
- A20G C24A G52C — lower, ≤ 0.5
- A15C C29U G39C A42U G48C G50U G51C A65U — lower, ≤ 0.5
- G6A C33U A70G — lower, ≤ 0.5
- G9C U19G A57G — lower, ≤ 0.5
- U13A C34G A37U A40U C66U — lower, ≤ 0.5
- C5G G12A U28A A65G — higher, 0.703
- C4G U13A A43G C46G G67A — lower, ≤ 0.5
- G6A U59C C66G — lower, ≤ 0.5
- C24G C27U G58C A69U — lower, ≤ 0.5
- U2C C22G G51C A70G — lower, ≤ 0.5
- C29U C60A C62U — lower, ≤ 0.5
- C31U G52C U54A C66U — lower, ≤ 0.5
- U13C G25C C49U G51A — lower, ≤ 0.5
- G12A C24U C27A G56A — lower, ≤ 0.5
- U7C A15G G68C — lower, ≤ 0.5
- C5A C11G G41C G56A — lower, ≤ 0.5
- C5A C24G U35G — lower, ≤ 0.5
- C4G C5U C34U — lower, ≤ 0.5
- U2C C29U — higher, 0.81
- C11A C27U A70U — lower, ≤ 0.5
- A20G C49A G56C G68C — lower, ≤ 0.5
- U7G A14G C22U G38A C49A C55A A69C — lower, ≤ 0.5
- U28G C33A A45G — lower, ≤ 0.5
- C5A U13A U35A U59C A70U — higher, 0.58
- C27A G38C A40U C62U — lower, ≤ 0.5
- C22G A36U C55U G56A — lower, ≤ 0.5
- A21U A42G U59A C60A — lower, ≤ 0.5
- C11G U13G A21G C27U — lower, ≤ 0.5
- U7G A15U G25U U32A G41A C61U — lower, ≤ 0.5
- C5A A36G G44A U47C A70U — lower, ≤ 0.5
- C24U U26A U28G U54G G63A — lower, ≤ 0.5
- U35C G41A G44A A57U C66G — lower, ≤ 0.5
- U3C G9A A21G A40G U64C — lower, ≤ 0.5
- C5G A36C A42G G67A — lower, ≤ 0.5
- C5U C31G U32C A37C U54G — lower, ≤ 0.5
- U7C G12C A20C G48A C49G — lower, ≤ 0.5
- C11U U19G G52A — higher, 0.609
- A15C C33G G50A U64A — lower, ≤ 0.5
- U28C A45U C55A C66A — lower, ≤ 0.5
- G10A C34G A69U — lower, ≤ 0.5
- G58C C66G G68A — lower, ≤ 0.5
- U13A G67C — higher, 0.945
- A14U G39C C55G C62A — lower, ≤ 0.5
- G10C G12A A15G G63A — higher, 0.643
- A20U U32A C33U — lower, ≤ 0.5
- C5U A21U A57U C60A — lower, ≤ 0.5
- A36C C46G — lower, 0.543
- C24G C27A C31U A43G C61U A65C — lower, ≤ 0.5
- C24G G41A C46U A65G — lower, ≤ 0.5
- U8A G18C C27U U32C C66G A70U — lower, ≤ 0.5
- A15C U19A C31U C34A — lower, ≤ 0.5
- C5G G9A C11G U19G C31G A43U A70G — lower, ≤ 0.5
- C22G A37U A40G A43U A65C — lower, ≤ 0.5
- C4G C22U C30A C34U G38C C66U — lower, ≤ 0.5
- U32A A57U G68U — lower, ≤ 0.5
- U2G U19A A21G A65U G67C — lower, 0.543
- A21G G52A U53C G56A A57C A69U — lower, ≤ 0.5
- U2A C27G U53G A70G — lower, ≤ 0.5
- C29A C60G G63A — lower, ≤ 0.5
- G17A C34U C62U A70C — lower, ≤ 0.5
- U13G A20U U53G — lower, ≤ 0.5
- C5U U26A G48A A70U — lower, ≤ 0.5
- C5G G23C A36C — lower, ≤ 0.5
- U13A G41A A69C — lower, ≤ 0.5
- U3C A57G C60A C66G — lower, ≤ 0.5
- G25C C27G C60G G63C — lower, ≤ 0.5
- G51A A57U A65U A70U — lower, ≤ 0.5
- C5G C29A C66U — lower, ≤ 0.5
- A14U A40U U54A C55U — lower, ≤ 0.5
- G9C A14U U28G U32A C66U — lower, ≤ 0.5
- U26C G63A — higher, 0.916
- U3G C5A C46A — lower, ≤ 0.5
- C30G G68U — higher, 0.64
- C31G C34U A40C G68C — lower, ≤ 0.5
- U16A U59A C66U — lower, ≤ 0.5
- C31G C34U A40C G41A — lower, ≤ 0.5
- C11G G51C U59G — lower, ≤ 0.5
- C5G U13A A45C C66U — lower, ≤ 0.5
- A14U U16G U19A G56A G67A — lower, ≤ 0.5
- C31A C49A G56A A65G C66A G68C — lower, ≤ 0.5
- U8C C27G A42G — lower, ≤ 0.5
- C5U C22A A57U — lower, ≤ 0.5
- C24G C31A C60A — lower, ≤ 0.5
- C30U A36U A57G A65U — lower, ≤ 0.5
- G10A G12A U16A G18A A45U — lower, ≤ 0.5
- U16G C27A G39A — lower, ≤ 0.5
- C4U C11G C34U C55U — lower, ≤ 0.5
- U7A C34A G44A C46U — lower, ≤ 0.5
- U26C U32A G44C — lower, ≤ 0.5
- U2G C22U C24G U35C C49U C61G — lower, ≤ 0.5
